Experimental data as given in the supplement of paper PMC12067093, “Discovery and optimisation of a covalent ligand for TRIM25 and its application to targeted protein ubiquitination” (Chemical Science, 2025).
The other results are listed elsewhere or left out.

The chains behind the UniProt entries cited, without tags or fusion partners. Where a name states a change or a piece, a line headed by the entry shows the natural chain unless it says otherwise.
UniProt Q9NXG2: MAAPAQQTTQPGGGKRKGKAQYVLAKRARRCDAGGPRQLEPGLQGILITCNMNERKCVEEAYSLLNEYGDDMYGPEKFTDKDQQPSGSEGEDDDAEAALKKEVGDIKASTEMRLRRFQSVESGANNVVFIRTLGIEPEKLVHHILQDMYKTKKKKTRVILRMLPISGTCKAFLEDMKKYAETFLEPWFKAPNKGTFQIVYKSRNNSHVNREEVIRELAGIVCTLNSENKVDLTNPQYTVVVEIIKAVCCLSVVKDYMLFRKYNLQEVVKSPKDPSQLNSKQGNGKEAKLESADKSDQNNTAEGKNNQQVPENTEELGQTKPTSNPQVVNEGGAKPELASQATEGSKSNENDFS
UniProt P07996: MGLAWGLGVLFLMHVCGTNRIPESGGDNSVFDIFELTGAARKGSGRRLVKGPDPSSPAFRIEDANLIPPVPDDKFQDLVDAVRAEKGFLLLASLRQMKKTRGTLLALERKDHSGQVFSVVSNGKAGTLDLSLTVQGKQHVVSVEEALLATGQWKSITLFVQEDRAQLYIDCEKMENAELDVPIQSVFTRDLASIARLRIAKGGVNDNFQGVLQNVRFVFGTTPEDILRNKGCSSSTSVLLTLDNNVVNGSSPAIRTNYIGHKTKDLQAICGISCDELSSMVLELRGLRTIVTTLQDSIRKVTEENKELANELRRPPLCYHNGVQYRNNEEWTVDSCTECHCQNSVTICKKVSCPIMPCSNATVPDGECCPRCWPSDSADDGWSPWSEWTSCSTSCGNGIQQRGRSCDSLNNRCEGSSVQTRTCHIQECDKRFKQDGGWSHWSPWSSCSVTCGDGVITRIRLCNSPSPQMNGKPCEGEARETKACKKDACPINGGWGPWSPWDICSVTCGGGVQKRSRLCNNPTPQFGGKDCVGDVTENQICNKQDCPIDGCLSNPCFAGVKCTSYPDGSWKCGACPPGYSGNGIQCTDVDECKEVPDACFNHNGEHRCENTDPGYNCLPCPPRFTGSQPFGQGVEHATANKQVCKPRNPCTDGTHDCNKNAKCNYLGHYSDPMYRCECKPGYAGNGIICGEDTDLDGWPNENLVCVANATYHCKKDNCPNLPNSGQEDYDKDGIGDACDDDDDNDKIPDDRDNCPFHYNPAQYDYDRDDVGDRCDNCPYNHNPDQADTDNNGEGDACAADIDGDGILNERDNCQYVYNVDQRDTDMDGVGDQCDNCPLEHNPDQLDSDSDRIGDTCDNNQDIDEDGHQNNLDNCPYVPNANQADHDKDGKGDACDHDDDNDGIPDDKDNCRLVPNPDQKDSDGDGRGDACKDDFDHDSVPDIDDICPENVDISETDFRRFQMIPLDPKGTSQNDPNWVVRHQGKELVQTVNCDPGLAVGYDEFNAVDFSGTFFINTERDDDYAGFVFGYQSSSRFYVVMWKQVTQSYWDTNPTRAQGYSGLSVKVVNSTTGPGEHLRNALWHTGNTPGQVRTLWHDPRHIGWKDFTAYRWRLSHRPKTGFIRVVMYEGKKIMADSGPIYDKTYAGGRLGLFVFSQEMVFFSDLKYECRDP
UniProt Q9UGI8: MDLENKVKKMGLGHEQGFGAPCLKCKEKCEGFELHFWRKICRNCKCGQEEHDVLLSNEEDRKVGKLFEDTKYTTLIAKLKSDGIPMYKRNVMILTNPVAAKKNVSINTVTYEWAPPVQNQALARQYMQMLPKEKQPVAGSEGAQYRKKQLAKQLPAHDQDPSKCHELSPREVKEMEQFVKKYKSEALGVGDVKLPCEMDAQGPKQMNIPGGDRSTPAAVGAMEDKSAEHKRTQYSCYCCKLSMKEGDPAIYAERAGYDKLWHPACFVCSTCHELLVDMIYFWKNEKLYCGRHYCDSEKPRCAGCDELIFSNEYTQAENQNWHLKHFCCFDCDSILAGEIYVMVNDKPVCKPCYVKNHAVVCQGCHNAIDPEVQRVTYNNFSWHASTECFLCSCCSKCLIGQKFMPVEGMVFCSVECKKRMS
UniProt Q9Y4R8, whole entry, looked up: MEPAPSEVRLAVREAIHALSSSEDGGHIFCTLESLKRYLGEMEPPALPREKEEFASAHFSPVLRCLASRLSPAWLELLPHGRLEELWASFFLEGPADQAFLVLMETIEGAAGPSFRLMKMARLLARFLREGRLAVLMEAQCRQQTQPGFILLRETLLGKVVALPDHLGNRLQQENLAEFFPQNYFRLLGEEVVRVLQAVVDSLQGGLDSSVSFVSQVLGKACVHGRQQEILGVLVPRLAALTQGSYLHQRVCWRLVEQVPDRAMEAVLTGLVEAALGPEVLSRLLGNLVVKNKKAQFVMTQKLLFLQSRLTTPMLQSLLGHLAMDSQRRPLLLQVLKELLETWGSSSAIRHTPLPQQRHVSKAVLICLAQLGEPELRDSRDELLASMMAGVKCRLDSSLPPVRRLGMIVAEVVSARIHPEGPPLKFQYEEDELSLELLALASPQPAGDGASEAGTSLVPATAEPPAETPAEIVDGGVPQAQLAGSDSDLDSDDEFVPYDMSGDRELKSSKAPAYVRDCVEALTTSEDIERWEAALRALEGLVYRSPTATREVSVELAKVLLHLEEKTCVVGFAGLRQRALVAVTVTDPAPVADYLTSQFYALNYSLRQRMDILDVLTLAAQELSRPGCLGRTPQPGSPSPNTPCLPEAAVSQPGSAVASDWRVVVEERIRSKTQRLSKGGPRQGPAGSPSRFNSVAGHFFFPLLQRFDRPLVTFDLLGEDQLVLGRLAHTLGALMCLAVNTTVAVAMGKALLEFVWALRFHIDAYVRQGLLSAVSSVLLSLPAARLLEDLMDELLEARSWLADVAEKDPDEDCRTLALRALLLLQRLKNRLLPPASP
UniProt P29401: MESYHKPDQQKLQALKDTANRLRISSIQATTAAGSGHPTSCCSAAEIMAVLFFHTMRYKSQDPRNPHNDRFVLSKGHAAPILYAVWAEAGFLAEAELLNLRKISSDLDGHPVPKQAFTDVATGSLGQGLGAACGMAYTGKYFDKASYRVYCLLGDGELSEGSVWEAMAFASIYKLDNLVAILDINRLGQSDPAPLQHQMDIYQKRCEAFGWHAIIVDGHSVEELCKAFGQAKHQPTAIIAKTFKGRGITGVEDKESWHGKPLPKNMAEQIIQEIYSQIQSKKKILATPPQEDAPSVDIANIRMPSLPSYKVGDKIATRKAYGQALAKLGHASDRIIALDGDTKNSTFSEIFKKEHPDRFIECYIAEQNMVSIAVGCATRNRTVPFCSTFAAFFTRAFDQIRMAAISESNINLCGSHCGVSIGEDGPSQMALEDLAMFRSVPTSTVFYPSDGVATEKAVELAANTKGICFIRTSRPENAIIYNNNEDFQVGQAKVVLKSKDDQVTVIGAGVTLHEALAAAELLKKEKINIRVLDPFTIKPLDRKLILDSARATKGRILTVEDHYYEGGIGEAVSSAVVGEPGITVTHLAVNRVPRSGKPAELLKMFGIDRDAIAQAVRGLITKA
UniProt O00142: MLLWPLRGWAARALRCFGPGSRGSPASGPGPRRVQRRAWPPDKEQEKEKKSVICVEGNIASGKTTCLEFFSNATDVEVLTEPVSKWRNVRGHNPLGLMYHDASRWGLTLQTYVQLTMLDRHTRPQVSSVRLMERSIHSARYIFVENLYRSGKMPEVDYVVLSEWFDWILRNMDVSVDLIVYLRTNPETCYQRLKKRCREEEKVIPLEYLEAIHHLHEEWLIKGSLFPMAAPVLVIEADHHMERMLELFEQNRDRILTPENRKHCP
UniProt Q9Y490: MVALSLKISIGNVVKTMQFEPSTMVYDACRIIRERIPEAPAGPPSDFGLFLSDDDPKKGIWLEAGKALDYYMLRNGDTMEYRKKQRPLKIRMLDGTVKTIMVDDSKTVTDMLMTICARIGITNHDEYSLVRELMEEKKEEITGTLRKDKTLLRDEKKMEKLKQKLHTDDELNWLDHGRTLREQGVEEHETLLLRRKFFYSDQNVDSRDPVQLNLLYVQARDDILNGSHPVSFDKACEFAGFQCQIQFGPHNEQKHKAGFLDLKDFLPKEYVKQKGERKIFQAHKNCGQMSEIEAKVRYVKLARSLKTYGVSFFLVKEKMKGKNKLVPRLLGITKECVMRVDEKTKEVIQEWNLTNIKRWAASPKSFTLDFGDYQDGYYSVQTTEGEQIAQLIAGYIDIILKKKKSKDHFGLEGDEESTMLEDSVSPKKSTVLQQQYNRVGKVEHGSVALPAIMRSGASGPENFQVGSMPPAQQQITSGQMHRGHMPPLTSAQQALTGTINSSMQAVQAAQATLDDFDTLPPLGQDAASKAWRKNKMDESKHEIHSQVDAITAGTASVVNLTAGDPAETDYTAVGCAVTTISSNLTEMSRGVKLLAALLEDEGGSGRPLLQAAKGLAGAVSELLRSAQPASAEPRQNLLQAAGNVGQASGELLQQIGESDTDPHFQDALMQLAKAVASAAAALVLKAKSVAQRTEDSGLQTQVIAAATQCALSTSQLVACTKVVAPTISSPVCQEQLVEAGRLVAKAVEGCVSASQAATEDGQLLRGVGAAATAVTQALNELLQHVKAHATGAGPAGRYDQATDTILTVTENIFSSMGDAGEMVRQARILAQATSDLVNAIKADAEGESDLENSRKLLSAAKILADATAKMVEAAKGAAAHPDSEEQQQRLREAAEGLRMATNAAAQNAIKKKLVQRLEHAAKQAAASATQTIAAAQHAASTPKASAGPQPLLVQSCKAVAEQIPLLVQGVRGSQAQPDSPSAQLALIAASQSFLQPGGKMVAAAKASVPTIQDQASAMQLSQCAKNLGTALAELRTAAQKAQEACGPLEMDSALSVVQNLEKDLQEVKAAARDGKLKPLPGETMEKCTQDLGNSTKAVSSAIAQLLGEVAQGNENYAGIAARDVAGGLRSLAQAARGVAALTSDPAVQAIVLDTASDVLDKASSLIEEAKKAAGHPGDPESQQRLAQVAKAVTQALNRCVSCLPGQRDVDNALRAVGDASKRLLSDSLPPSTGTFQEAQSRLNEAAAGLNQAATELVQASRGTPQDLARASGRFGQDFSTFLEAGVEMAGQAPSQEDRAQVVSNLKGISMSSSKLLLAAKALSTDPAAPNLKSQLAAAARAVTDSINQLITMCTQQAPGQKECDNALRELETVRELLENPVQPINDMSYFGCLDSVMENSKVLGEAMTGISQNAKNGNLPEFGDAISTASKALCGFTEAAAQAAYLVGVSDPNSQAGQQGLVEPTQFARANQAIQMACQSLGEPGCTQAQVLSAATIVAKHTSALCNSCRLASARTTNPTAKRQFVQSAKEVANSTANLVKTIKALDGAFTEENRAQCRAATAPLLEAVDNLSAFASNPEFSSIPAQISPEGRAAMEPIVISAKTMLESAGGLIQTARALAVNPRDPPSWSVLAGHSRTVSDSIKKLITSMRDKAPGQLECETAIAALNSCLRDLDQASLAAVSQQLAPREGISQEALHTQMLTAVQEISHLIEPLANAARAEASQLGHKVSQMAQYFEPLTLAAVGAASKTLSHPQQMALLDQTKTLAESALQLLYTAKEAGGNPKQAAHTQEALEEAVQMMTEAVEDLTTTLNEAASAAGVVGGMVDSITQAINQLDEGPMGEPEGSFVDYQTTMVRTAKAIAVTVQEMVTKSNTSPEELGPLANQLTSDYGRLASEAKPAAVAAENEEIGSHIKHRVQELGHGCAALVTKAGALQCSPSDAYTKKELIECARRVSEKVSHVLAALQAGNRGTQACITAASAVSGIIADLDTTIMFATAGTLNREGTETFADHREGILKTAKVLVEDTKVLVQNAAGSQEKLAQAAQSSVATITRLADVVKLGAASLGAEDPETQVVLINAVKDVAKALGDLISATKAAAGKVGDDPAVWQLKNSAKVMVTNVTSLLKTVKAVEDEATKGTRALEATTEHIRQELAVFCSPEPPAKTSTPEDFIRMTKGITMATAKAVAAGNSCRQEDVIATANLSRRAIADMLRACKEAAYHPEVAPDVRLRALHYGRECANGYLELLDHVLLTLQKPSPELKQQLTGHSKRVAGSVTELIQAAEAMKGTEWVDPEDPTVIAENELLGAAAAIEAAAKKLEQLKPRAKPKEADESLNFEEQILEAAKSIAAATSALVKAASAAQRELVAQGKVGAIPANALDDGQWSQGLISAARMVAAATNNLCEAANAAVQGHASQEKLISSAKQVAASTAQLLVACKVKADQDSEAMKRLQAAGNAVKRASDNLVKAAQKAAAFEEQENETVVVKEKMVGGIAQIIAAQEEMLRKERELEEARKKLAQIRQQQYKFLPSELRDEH
UniProt Q9NQ88: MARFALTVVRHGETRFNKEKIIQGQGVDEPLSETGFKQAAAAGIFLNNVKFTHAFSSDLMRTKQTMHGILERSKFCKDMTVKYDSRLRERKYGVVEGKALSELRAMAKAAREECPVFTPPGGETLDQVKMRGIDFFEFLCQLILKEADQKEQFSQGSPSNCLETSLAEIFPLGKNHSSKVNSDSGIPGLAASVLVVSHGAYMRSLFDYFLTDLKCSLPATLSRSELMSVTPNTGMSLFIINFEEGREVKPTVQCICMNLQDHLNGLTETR

Compound: Cc1cc(ccc1-c1ccccc1)C(=O)N1CCCN(CC1)C(=O)CCl [compound 10]
Test: probe-labelled cysteine peptide fold change vs DMSO (competition) (log2 fold change); higher = less target engagement (more negative = stronger competition)
Settings: 10 µM; THP-1; incubation time: 4 h
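Note: competitive profiling in live THP-1 cells: cysteine peptides tagged with an iodoacetamide desthiobiotin (IA-DTB) probe, intensity after compound treatment relative to DMSO-treated cells.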

Row | Target | probe-labelled cysteine peptide fold change
1 | THUMPD1_Q9NXG2_169_MLPISGTCK (UniProt Q9NXG2) | -0.117
2 | THBS1_P07996_413_CEGSSVQTR (UniProt P07996) | -0.33
3 | TES_Q9UGI8_412+416_FMPVEGMVFCSVECK (UniProt Q9UGI8) | -0.248
4 | THSD7A_Q9UPZ6_1036_CNSHGYIEEACIIPCPSDCK (UniProt Q9UPZ6) | -0.3
5 | TEC_P42680_625_TIDELVECEETFGR (UniProt P42680) | -0.192
6 | TELO2_Q9Y4R8_568_TCVVGFAGLR (UniProt Q9Y4R8) | 0.142
7 | TKFC_Q3LXA3_404_AAGDGDCGTTHSR (UniProt Q3LXA3) | -0.0749
8 | TELO2_Q9Y4R8_813_SWLADVAEKDPDEDCR (UniProt Q9Y4R8) | 0.0272
9 | TKT_P29401_225_RCEAFGWHAIIVDGHSVEELCK (UniProt P29401) | 0.0132
10 | THBS1_P07996_406_SCDSLNNR (UniProt P07996) | -0.464
11 | TK2_O00142_54_SVICVEGNIASGK (UniProt O00142) | -0.108
12 | TDRD3_Q9H7E2_377_CDRPYSR (UniProt Q9H7E2) | -0.0361
13 | TLN1_Q9Y490_1509_HTSALCNSCR (UniProt Q9Y490) | 0.0952
14 | THUMPD1_Q9NXG2_31_RCDAGGPR (UniProt Q9NXG2) | -0.658
15 | TEP1_Q99973_2105_TPVLIHSFPACHR (UniProt Q99973) | -0.0307
16 | TENT2_Q6PIY7_431_YICVEEPFDGTNTAR (UniProt Q6PIY7) | -0.203
17 | THG1L_Q9NWX6_51_DFEADDTCLAHCWVVVR (UniProt Q9NWX6) | 0.048
18 | TKFC_Q3LXA3_13+24_KLVNSVAGCADDALAGLVACNPNLQLLQGHR (UniProt Q3LXA3) | -0.303
19 | THOC2_Q8NI27_743_DALLDHDLALPLCLLMAQQR (UniProt Q8NI27) | 0.093
20 | THTPA_Q9BU02_66_CPGAAGVLGPHTEYK (UniProt Q9BU02) | -0.0742

Given comma-delimited: part of the list above
Row,Target,probe-labelled cysteine peptide fold change
9,TKT_P29401_225_RCEAFGWHAIIVDGHSVEELCK (UniProt P29401),0.0132
10,THBS1_P07996_406_SCDSLNNR (UniProt P07996),-0.464
11,TK2_O00142_54_SVICVEGNIASGK (UniProt O00142),-0.108

Remaining list, next part

Row | Target | probe-labelled cysteine peptide fold change
21 | TEP1_Q99973_2000_ECSLQSLWLLSR (UniProt Q99973) | -0.0267
22 | TLN1_Q9Y490_1671_APGQLECETAIAALNSCLR (UniProt Q9Y490) | 0.0454
23 | THUMPD3_Q9BV44_239_HCFTSNEAAR (UniProt Q9BV44) | -0.116
24 | TCP1_P17987_385_GANDFMCDEMER (UniProt P17987) | -0.157
25 | THOC7_Q6I9Y2_90_EIECSIAGAHEK (UniProt Q6I9Y2) | -0.0418
26 | TEX10_Q9NXF1_454_DCSWIEMIR (UniProt Q9NXF1) | 0.104
27 | THOP1_P52888_175_KLSLLCIDFNK (UniProt P52888) | -0.00153
28 | TES_Q9UGI8_361+364_NHAVVCQGCHNAIDPEVQR (UniProt Q9UGI8) | -0.0998
29 | TKT_P29401_133_QAFTDVATGSLGQGLGAACGMAYTGK (UniProt P29401) | -0.0496
30 | TLN1_Q9Y490_2243_ECANGYLELLDHVLLTLQK (UniProt Q9Y490) | 0.169
31 | TLN1_Q9Y490_1927_HRVQELGHGCAALVTK (UniProt Q9Y490) | -0.0503
32 | TFIP11_Q9UBB9_383_VLEMVEECERR (UniProt Q9UBB9) | 0.00917
33 | TIGAR_Q9NQ88_114_EECPVFTPPGGETLDQVK (UniProt Q9NQ88) | -0.225
34 | THYN1_Q9P016_118_LGEEAFFYHSNCK (UniProt Q9P016) | -0.103
35 | TELO2_Q9Y4R8_30_EAIHALSSSEDGGHIFCTLESLKR (UniProt Q9Y4R8) | -0.113
36 | TEP1_Q99973_692_TVLVYLTDANADRLCPK (UniProt Q99973) | -0.328
37 | TEX30_Q5JUR7_21_LLDAVCLVPNK (UniProt Q5JUR7) | -0.0748
38 | TES_Q9UGI8_164_CHELSPR (UniProt Q9UGI8) | -0.162
39 | TGS1_Q96RS0_357_ECPASGQSEPR (UniProt Q96RS0) | -0.00223
